Experimental findings from the supplement of paper PMC12024529 are described below.

Where a name gives a salt, the structure may show the parent alone. Some of the results follow. Plates or batches differ in their baseline, so values are only roughly comparable.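 Wild-type or misfolding-prone missense mutant B-domain-deleted factor VIII, fused to Gaussia luciferase, is stably expressed in HEK293 lines. Each score is (mean triplicate-well luminescence minus DMSO mean) divided by DMSO standard deviation. Hits score at least 2; lower scores could stem from decreased secretion or poorer cell viability.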

In the assay the test system is HEK293 p.N1941S BDD-FVIII-Gluc. The experiment in a line: secreted FVIII-Gluc luciferase Z-score vs DMSO control; higher = more FVIII-Gluc secretion. The note with it: 5 µM; 24 h.
Take `CN1CCN(c2cc3c(cc2F)c(=O)c(C(=O)O)cn3-c2ccc(F)cc2)CC1` [Difloxacin HCl]: the “secreted FVIII-Gluc luciferase Z-score” value is inactive: 0.843.

`Cc1onc(-c2ccccc2)c1-c1ccc(S(N)(=O)=O)cc1` [Bextra (valdecoxib)]: the “secreted FVIII-Gluc luciferase Z-score” value was inactive: -0.361.

Take `CC(C)(Oc1ccc(CCNC(=O)c2ccc(Cl)cc2)cc1)C(=O)O` [Bezafibrate]: the “secreted FVIII-Gluc luciferase Z-score” value is active: 3.07.

As for `CCCc1nn(C)c2c(=O)[nH]c(-c3cc(S(=O)(=O)N4CCN(C)CC4)ccc3OCC)nc12` [Sildenafil citrate], the “secreted FVIII-Gluc luciferase Z-score” value is inactive: 0.0337.

Consider `COc1ccc(CNc2nc(N3CCC[C@H]3CO)ncc2C(=O)NCc2ncccn2)cc1Cl` [Avanafil], for which the “secreted FVIII-Gluc luciferase Z-score” value is inactive: -0.188.

As for `CN(Cc1cc(Br)cc(Br)c1N)C1CCCCC1` [Bromhexine HCl], the “secreted FVIII-Gluc luciferase Z-score” value was inactive: -0.162.

With `CC1CC(OC(=O)C(O)c2ccccc2)CC(C)(C)C1` (configuration not stated) [Cyclandelate], the “secreted FVIII-Gluc luciferase Z-score” value was inactive: 0.644.

With `CC(C)n1c(/C=C/C(O)CC(O)CC(=O)O)c(-c2ccc(F)cc2)c2ccccc21` (configuration not stated) [Fluvastatin sodium (Lescol)], the “secreted FVIII-Gluc luciferase Z-score” value was inactive: -4.48.

Take `CC(C)(C)NC(=O)[C@H]1CC[C@H]2[C@@H]3CC[C@H]4NC(=O)C=C[C@]4(C)[C@H]3CC[C@]12C` [Finasteride]: the “secreted FVIII-Gluc luciferase Z-score” value was inactive: -0.542.

Turning to `C[C@H](CS)C(=O)N1CCC[C@H]1C(=O)O` [Captopril (Capoten)], the “secreted FVIII-Gluc luciferase Z-score” value was inactive: -0.217.

For the molecule `CCC(=O)O[C@]1(C(=O)SCF)[C@H](C)C[C@H]2[C@@H]3C[C@H](F)C4=CC(=O)C=C[C@]4(C)[C@@]3(F)[C@@H](O)C[C@@]21C` [Fluticasone propionate (Flonase, Veramyst)], the “secreted FVIII-Gluc luciferase Z-score” value was active: 8.59.

As to `CCCCCCCCOc1ccccc1C(=O)Nc1ccc(C(=O)OCC[N+](C)(CC)CC)cc1` [Otilonium Bromide], the “secreted FVIII-Gluc luciferase Z-score” value is inactive: 0.0858.

For the molecule `C[C@@H]1C[C@H]2[C@@H]3CCC4=CC(=O)C=C[C@]4(C)[C@@]3(Cl)[C@@H](O)C[C@]2(C)[C@@]1(OC(=O)c1ccco1)C(=O)CCl` [Mometasone furoate], the “secreted FVIII-Gluc luciferase Z-score” value was inactive: 1.37.

As to `CCN1CCN(C(=O)N[C@@H](C(=O)N[C@@H]2C(=O)N3[C@@H]2SC(C)(C)[C@@H]3C(=O)O)c2ccccc2)C(=O)C1=O` [Piperacillin Sodium], the “secreted FVIII-Gluc luciferase Z-score” value is inactive: -0.107.

For the molecule `COc1cnc(NS(=O)(=O)c2ccc(N)cc2)nc1` [Sulfameter (Bayrena)], the “secreted FVIII-Gluc luciferase Z-score” value is inactive: 0.646.

In the case of `COc1ccc(CC2c3cc(OC)c(OC)cc3CC[N+]2(C)CCC(=O)OCCCCCOC(=O)CC[N+]2(C)CCc3cc(OC)c(OC)cc3C2Cc2ccc(OC)c(OC)c2)cc1OC` (configuration not stated) [Atracurium besylate], the “secreted FVIII-Gluc luciferase Z-score” value is inactive: -1.37.

As for `CCCC(C(=O)OCCN(CC)CC)(c1ccccc1)c1ccccc1` [Proadifen HCl], the “secreted FVIII-Gluc luciferase Z-score” value is inactive: 0.929.

Turning to `C#C[C@]1(O)CC[C@H]2[C@@H]3CCC4=CC(=O)CC[C@@H]4[C@H]3CC[C@@]21CC` [Levonorgestrel (Levonelle)], the “secreted FVIII-Gluc luciferase Z-score” value is inactive: 1.02.

In the case of `CC[C@H]1OC(=O)C[C@@H](O)[C@H](C)[C@@H](O[C@@H]2O[C@H](C)[C@@H](O)[C@H](N(C)C)[C@H]2O)[C@@H](CCN2C[C@H](C)C[C@H](C)C2)C[C@@H](C)C(=O)/C=C/C(C)=C/[C@@H]1CO[C@@H]1O[C@H](C)[C@@H](O)[C@@H](OC)[C@H]1OC` [Tilmicosin], the “secreted FVIII-Gluc luciferase Z-score” value was inactive: 0.293.

With `CC(C)(C)C(=O)OCOP(=O)(COCCn1cnc2c(N)ncnc21)OCOC(=O)C(C)(C)C` [Adefovir Dipivoxil (Preveon, Hepsera)], the “secreted FVIII-Gluc luciferase Z-score” value is inactive: -4.3.

Take `CC[C@H](C)C[C@H](C)CCCCCCCCC(=O)N[C@H]1C[C@@H](O)[C@@H](NCCN)NC(=O)[C@@H]2[C@@H](O)CCN2C(=O)[C@H]([C@H](O)CCN)NC(=O)[C@H]([C@H](O)[C@@H](O)c2ccc(O)cc2)NC(=O)[C@@H]2C[C@@H](O)CN2C(=O)[C@H]([C@@H](C)O)NC1=O` [Caspofungin acetate]: the “secreted FVIII-Gluc luciferase Z-score” value is inactive: -0.329.

Consider `CCOC(=O)CCC(=O)O[C@H]1[C@H](O[C@@H]2[C@@H](C)[C@H](O[C@H]3C[C@@](C)(OC)[C@@H](O)[C@H](C)O3)[C@@H](C)C(=O)O[C@H](CC)[C@@](C)(O)[C@H](O)[C@@H](C)C(=O)[C@H](C)C[C@@]2(C)O)O[C@H](C)C[C@@H]1N(C)C` [Erythromycin Ethylsuccinate], for which the “secreted FVIII-Gluc luciferase Z-score” value is inactive: -0.959.
